Experimental data: patent US5624818
For part of these data: No signal at the amounts used counts as a negative. For part of these data: The comparison behind a weaker result is the experiment's own reference, which may not be listed here. For part of these data: Construct, isoform or probe ends are uncertain for at least one entry. For part of these data: At least one result comes from cells or an extract, where the contact may be indirect.

Chains of the proteins cited; added tags and fusions are not shown. Chains listed by the source or under a name are the forms on record and can include a tag or linker.
UniProt P61244, other isoform, or with tags, fused parts or gaps: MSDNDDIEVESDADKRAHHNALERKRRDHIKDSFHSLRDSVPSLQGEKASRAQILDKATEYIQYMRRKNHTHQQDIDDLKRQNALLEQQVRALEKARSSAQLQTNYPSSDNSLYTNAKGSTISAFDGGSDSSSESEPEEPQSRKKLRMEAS
mSin:Mad:Max ternary complex, one chain, as listed by the source, chain 2 of 3: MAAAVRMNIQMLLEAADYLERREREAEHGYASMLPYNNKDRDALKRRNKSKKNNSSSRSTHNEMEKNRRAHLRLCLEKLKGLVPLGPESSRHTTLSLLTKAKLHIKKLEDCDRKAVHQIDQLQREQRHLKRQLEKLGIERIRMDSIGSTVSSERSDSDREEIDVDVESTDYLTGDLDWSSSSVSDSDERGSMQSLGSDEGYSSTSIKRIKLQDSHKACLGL
c-Myc full length in vitro translated (Homo sapiens), one chain, as listed by the source: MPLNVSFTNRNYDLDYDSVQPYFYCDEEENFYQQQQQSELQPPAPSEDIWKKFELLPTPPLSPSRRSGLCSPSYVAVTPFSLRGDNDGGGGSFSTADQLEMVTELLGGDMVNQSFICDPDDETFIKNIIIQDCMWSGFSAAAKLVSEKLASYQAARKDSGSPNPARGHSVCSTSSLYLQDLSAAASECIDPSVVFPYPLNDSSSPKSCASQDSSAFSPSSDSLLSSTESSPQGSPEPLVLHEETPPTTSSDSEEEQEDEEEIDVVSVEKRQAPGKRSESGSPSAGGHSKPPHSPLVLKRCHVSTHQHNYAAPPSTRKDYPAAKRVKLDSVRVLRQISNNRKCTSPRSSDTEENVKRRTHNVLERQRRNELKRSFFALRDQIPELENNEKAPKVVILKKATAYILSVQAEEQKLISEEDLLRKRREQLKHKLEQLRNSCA
GST-Mad:Max CKII-phosphorylated (Papio (baboon) / Homo sapiens), one chain, as listed by the source, chain 1 of 2: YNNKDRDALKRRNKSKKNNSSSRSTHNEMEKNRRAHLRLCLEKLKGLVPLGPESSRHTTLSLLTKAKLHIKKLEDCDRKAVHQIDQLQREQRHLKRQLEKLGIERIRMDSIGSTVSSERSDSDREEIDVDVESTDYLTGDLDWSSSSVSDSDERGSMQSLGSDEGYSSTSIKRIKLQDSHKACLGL
mSin:Mad:Max ternary complex, one chain, as listed by the source, chain 3 of 3: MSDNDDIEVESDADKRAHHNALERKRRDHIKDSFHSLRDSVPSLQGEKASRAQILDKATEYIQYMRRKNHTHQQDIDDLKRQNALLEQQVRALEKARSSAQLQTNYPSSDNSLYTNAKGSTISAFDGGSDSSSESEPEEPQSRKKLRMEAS

Assays:
[1] = system: mSin:Mad:Max ternary complex; experiment: binding assay; settings: ternary complex binding stated without data; method not stated; protein translated in vitro; cited from earlier work
[2] = system: GST-Mad:Max CKII-phosphorylated (Papio (baboon) / Homo sapiens); experiment: EMSA; settings: binding unaffected by CKII phosphorylation; purified recombinant protein; protein details: GST on Mad, CKII + ATP treated Max; label: 32P
[3] = system: c-Myc full length in vitro translated (Homo sapiens); experiment: EMSA; settings: protein translated in vitro; label: 32P
[4] = target: Max (p21) in vitro translated (Homo sapiens) (UniProt P61244); experiment: EMSA; settings: no additional binding over lysate background; protein translated in vitro; label: 32P
[5] = target: Max (p21, 151 aa form, lacks 9-aa insertion) (Homo sapiens) (UniProt P61244); experiment: EMSA; settings: supershift with anti-Max; 5 mM MgCl2, 50 mM KCl, 4 C gel; purified recombinant protein; label: 32P
[6] = system: USF (endogenous in reticulocyte lysate); experiment: EMSA; settings: background band of unprogrammed lysate, altered by anti-USF (unpublished data); protein in an extract; label: 32P
[7] = system: GST-Mad:Max heterodimer (Papio (baboon) / Homo sapiens); experiment: EMSA; settings: supershift with anti-Max and anti-GST; heterodimer favored over Max:Max; purified recombinant protein; protein details: GST on Mad; label: 32P
[8] = system: Mad-1-His6:Max heterodimer (Homo sapiens); experiment: EMSA; settings: similar affinity to Myc:Max; purified recombinant protein; protein details: His6 on Mad; label: 32P
[9] = system: c-Myc deltaLZ + Max c-Myc deletion of 416-439 (Homo sapiens); experiment: EMSA; settings: protein translated in vitro; label: 32P
[10] = system: c-Myc deltaBR:Max c-Myc deletion of 353-367 (Homo sapiens); experiment: EMSA; settings: still associates with Max; protein translated in vitro; label: 32P
[11] = target: Max CKII-phosphorylated (Homo sapiens) (UniProt P61244); experiment: EMSA; settings: CKII + ATP abolishes homodimer binding; purified recombinant protein; protein details: CKII + ATP treated, baculovirus Sf9; label: 32P
[12] = target: Max (p21, 151 aa form, lacks 9-aa insertion) (Homo sapiens) (UniProt P61244); experiment: competition with a labelled probe; settings: 25-100 ng unlabeled MREA does not compete with CM-1; purified recombinant protein

CACGTG (double strand) [CACGTG E-box]: binds [1].
“CCCCCACCACGTGGTGCCTGA (double strand) [CM-1]”: binds [2]; binds more weakly [3]; no binding [4]. “CCCCCACCACGTGGTGCCTGA (double strand) [CM-1]”: binds [5]; binds [6]; binds [7]. “CCCCCACCACGTGGTGCCTGA (double strand) [CM-1]”: binds [8]; no binding [9]; no binding [10]. “CCCCCACCACGTGGTGCCTGA (double strand) [CM-1]”: no binding [11].
“TCGAGTAAGACACCCGTTACTTTACG (double strand) [MREA (Mim-1 promoter)]”: no binding [12].
